# Assay results published in the supplement of paper PMC3682954.
# “And” between values parts separate entries of the source, which are not always exact repeats. Identical values can stand only once. Counter-ions that a name gives are not always drawn. ± gives the standard deviation of the averaged measurements. The list shows a part of the results. Most values come without repeats; read them as rough.
# Tested on: RAW 264.7
# Test: HMGB1-induced TNF-alpha production relative to HMGB1-stimulated control; higher = more TNF-alpha secretion (less inhibition)
# Conditions: stimulus: HMGB1 5 ug/ml, 18 h
# [1] = compound concentration: 1 ug/ml
Structure (SMILES),HMGB1-induced TNF-alpha production (compound concentration: 3 uM),HMGB1-induced TNF-alpha production [1] [%]
CCN(CC)CCc1nc(-c2ccccc2)no1 [Oxalamine citrate salt],105%,
CCN(CC)CCc1nc(-c2ccccc2)no1,57.1%,
"CC(C)NCC(O)c1ccc(O)c(O)c1 (single isomer, unassigned; (+)) [(+)-Isoproterenol (+)-bitartrate salt]",40.5%,
CNCC(O)c1ccc(OC(=O)C(C)(C)C)c(OC(=O)C(C)(C)C)c1 (centres undefined) [Dipivefrin hydrochloride],57.6%,
Nc1ncnc2c1c(-c1ccc(Oc3ccccc3)cc1)cn2C1CCCC1,76%,
Cc1c(N(C)CS(=O)(=O)O)c(=O)n(-c2ccccc2)n1C,85%,
Cc1c(N(C)CS(=O)(=O)O)c(=O)n(-c2ccccc2)n1C [Dipyrone],95.9%,
Nc1nc2c(nc(Br)n2[C@@H]2OC(CO)C(O)C2O)c(=O)[nH]1 (some centres undefined),,84.2
CN(C)[C@@H]1C(O)=C(C(=O)NCN2CCCC2)C(=O)[C@@]2(O)C(O)=C3C(=O)c4c(O)cccc4[C@@](C)(O)[C@H]3C[C@@H]12 [Rolitetracycline],120%,72.8
CN(C)[C@@H]1C(O)=C(C(=O)NCN2CCCC2)C(=O)[C@@]2(O)C(O)=C3C(=O)c4c(O)cccc4[C@@](C)(O)[C@H]3C[C@@H]12,97.9 ± 10%,
O=c1[nH]c(=O)n(C2CCCO2)cc1F (centres undefined),88.4%,
O=c1[nH]c(=O)n(C2CCCO2)cc1F (centres undefined) [Ftorafur],104%,
CC(NCCC(c1ccccc1)c1ccccc1)c1ccccc1 (centres undefined),75.8%,
CC(NCCC(c1ccccc1)c1ccccc1)c1ccccc1 (centres undefined) [Fendiline hydrochloride],63.7%,
Nc1nc2ccc(Cl)cc2c2nc(-c3ccco3)nn12,83.3% and 103%,
NC(=O)[C@@H]1CCCN1 [L-Prolinamide],,68.9
CCC(C)N(C)C(=O)c1cc2ccccc2c(-c2ccccc2Cl)n1 (centres undefined),62.9%,
COc1c2occc2c(OC)c2c(=O)cc(C)oc12 [Khellin],77.9%,68.4
COc1c2occc2c(OC)c2c(=O)cc(C)oc12,82.6%,
C1CNCCN1,103%,
COc1ccc2[nH]cc(CC(N)C(=O)O)c2c1 (racemic) [DL-5-Methoxytryptophan],,50.7
Nc1cc(C(Cl)=C(Cl)Cl)c(S(N)(=O)=O)cc1S(N)(=O)=O,89.9 ± 5%,
Nc1cc(C(Cl)=C(Cl)Cl)c(S(N)(=O)=O)cc1S(N)(=O)=O [Clorsulon],61.8%,
CC[C@H](C)C(=O)O[C@H]1CCC=C2C=C[C@H](C)[C@H](CC[C@@H]3C[C@@H](O)CC(=O)O3)[C@H]21 [Mevastatin],122 ± 29%,
CC[C@H](C)C(=O)O[C@H]1CCC=C2C=C[C@H](C)[C@H](CC[C@@H]3C[C@@H](O)CC(=O)O3)[C@H]21 [mevastatin],129%,
CC[C@H](C)C(=O)O[C@H]1CCC=C2C=C[C@H](C)[C@H](CC[C@@H]3C[C@@H](O)CC(=O)O3)[C@H]21,97.9%,

Structure (SMILES),HMGB1-induced TNF-alpha production (compound concentration: 3 uM),HMGB1-induced TNF-alpha production [1] [%]
C[C@H](CCC(=O)O)[C@H]1CC[C@H]2[C@@H]3[C@H](O)C[C@@H]4C[C@H](O)CC[C@]4(C)[C@H]3CC[C@]12C [Chenodiol],54.7%,
C[C@H](CCC(=O)O)[C@H]1CC[C@H]2[C@@H]3[C@H](O)C[C@@H]4C[C@H](O)CC[C@]4(C)[C@H]3CC[C@]12C,99%,
CN1CCN(c2c(F)cc3c(=O)c(C(=O)O)cn(CCF)c3c2F)CC1 [Fleroxacin],92.581 ± 0.0042%,
Nc1ncnc2c1c(I)cn2[C@@H]1C[C@H](N)[C@@H](O)[C@H]1O,84.3%,
NNc1nncc2ccccc12 [Hydralazine hydrochloride],83.5 ± 1.9%,
NNc1nncc2ccccc12,104%,
CC(=O)OCC(CCn1cnc2cnc(N)nc21)COC(C)=O [Famciclovir],90.9 ± 15%,
CC(=O)OCC(CCn1cnc2cnc(N)nc21)COC(C)=O,101 ± 18%,
O=C(/C=C/c1ccc(O)c(O)c1)OCCc1ccccc1 [Caffeic acid phenethyl ester],51.5%,
NCC(O)CC(=O)O (centres undefined),81.1%,
CN1CCN(CCCN2c3ccccc3Sc3ccc(Cl)cc32)CC1,84.2% and 92.5%,
CN1CCN(CCCN2c3ccccc3Sc3ccc(Cl)cc32)CC1 [Prochlorperazine dimaleate],73.5 ± 18%,
Cc1nc(=O)c2cc(CN(C)c3ccc(C(=O)N[C@@H](CCC(=O)O)C(=O)O)s3)ccc2[nH]1,94.7%,
O=C1c2ccccc2C(=O)c2c1ccc(O)c2O [Alizarin],,84.6
O=c1oc2ccccc2c(O)c1Cc1c(O)c2ccccc2oc1=O,79.6%,
O=c1oc2ccccc2c(O)c1Cc1c(O)c2ccccc2oc1=O [Dicumarol],88.9%,
Cn1ccc2cc(NC(=O)Nc3cccnc3)ccc21,91.7%,
CC(=O)[C@]1(O)Cc2c(O)c3c(c(O)c2[C@@H](O[C@H]2C[C@H](N)[C@H](O)[C@H](C)O2)C1)C(=O)c1ccccc1C3=O [Idarubicin],15.4 ± 6.2%,
CC(=O)[C@]1(O)Cc2c(O)c3c(c(O)c2[C@@H](O[C@H]2C[C@H](N)[C@H](O)[C@H](C)O2)C1)C(=O)c1ccccc1C3=O,6.07%,
NC(=O)NCCCC(N)C(=O)O (stereo not drawn) [L(+)-Citrulline],,82
OC[C@H]1O[C@@H](Oc2cc(O)cc(/C=C/c3ccc(O)cc3)c2)[C@H](O)[C@@H](O)[C@@H]1O,103%,
CC(C)C[C@@H](NC(=O)[C@H](C)NC(=O)CNC(=O)[C@@H](NC=O)C(C)C)C(=O)N[C@@H](C)C(=O)N[C@@H](C(=O)N[C@H](C(=O)N[C@H](C(=O)N[C@@H](Cc1c[nH]c2ccccc12)C(=O)N[C@H](CC(C)C)C(=O)N[C@@H](Cc1c[nH]c2ccccc12)C(=O)N[C@H](CC(C)C)C(=O)N[C@@H](Cc1c[nH]c2ccccc12)C(=O)N[C@H](CC(C)C)C(=O)N[C@@H](Cc1c[nH]c2ccccc12)C(=O)NCCO)C(C)C)C(C)C)C(C)C,48.7%,
COc1ccc(C2CNC(=O)C2)cc1OC1CCCC1 (centres undefined) [Rolipram],61.4 ± 6.2%,
COc1ccc(C2CNC(=O)C2)cc1OC1CCCC1 (centres undefined),76.8 ± 24%,
O=c1c(O)c(-c2ccc(O)cc2O)oc2cc(O)cc(O)c12 [Morin hydrate],,78.4
O=c1c(O)c(-c2ccc(O)cc2O)oc2cc(O)cc(O)c12 [Morin],108%,
